According to patent US20040241797A1:
No constants are given. Whether binding was seen depends on the method and setting. For part of these data: In cells and extracts the contact can be indirect. Some entries that bind do so weakly or less than the wild type.

Chains of the proteins cited; added tags and fusions are not shown.
UniProt Q15717: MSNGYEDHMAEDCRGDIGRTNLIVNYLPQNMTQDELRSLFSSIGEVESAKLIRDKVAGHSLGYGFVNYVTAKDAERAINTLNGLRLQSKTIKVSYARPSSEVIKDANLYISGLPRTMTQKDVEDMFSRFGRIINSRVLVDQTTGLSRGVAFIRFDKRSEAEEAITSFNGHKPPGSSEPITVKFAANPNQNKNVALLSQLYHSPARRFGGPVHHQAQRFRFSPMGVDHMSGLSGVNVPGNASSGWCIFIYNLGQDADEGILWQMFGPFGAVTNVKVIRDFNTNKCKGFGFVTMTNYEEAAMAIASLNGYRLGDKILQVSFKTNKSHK
UniProt Q15365: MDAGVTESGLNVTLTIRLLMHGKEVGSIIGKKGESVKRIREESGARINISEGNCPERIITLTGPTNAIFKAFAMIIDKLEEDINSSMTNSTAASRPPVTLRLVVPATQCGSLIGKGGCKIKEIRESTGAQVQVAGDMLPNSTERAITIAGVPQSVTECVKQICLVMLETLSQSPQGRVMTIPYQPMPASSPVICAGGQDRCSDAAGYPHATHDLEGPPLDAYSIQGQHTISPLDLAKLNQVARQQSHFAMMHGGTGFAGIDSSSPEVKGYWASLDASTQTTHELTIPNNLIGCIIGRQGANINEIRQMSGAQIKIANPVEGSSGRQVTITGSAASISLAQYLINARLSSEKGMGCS

What was measured:
GST-αCP1A (human) [1] = assay: GST pull-down, radiolabeled in vitro translated HuR on GST-αCP1A glutathione beads, SDS-PAGE
GST-αCP1A (human) [2] = assay: GST pull-down, SDS-PAGE (figure legend)
[3] = biological target: HuR bait (Matchmaker Two-Hybrid System 3) (human) (UniProt Q15717); assay: yeast two-hybrid screen, HuR as bait against hypoxic HEK 293 cDNA bank

Row | binding (GST-αCP1A (human) [1]) | binding (GST-αCP1A (human) [2]) | binding [3] | Substance
1 | binds | binds | – | HuR (radiolabeled, in vitro transcribed-translated from pcDNA3-HuR) (from UniProt Q15717 1-326)
2 | – | – | binds | αCP1 clones of the hypoxic HEK 293 cDNA bank (two-hybrid prey) (from UniProt Q15365 1-356)
